In article PMC10163288:
Some of the results follow.

B1: il2ra_site1_2b5i_sap_13_mot_HHH_b1_05692_af2_000000143_0001_1_17_H_._HHH_b2_05362_0001_0000300024_0000001_0_0001 (protein)
chain: SSSSSDAAELIVEALLEEAEHIEDEHRRRSILHLALATARHRNNPELEELVEEVAEKLESSSSSS
B2: il2ra_site2_3nfp_normal_mot_HHH_b1_07543_000000150_0001_38_55_H_._HHH_b2_07046_0001_0000100002_0000001_0 (protein)
chain: SSSSDSEEYLRAALALLRRAVEEGDEELAEKHARLLILLAEDKGDEEVLEEARRLLELLNSSSSS
B3: il2ra_site1_3nfp_sap_18_mot_HHH_b1_08274_000000153_0001_43_57_H_._651d3f7ee3e35a0effb0e65a459b730c_0001_1_0001_0000400036_0000001_0_0001_af2pred_0001_af2pred_1_ … (protein)
chain: DAAERAIRRAEELAPPELEELLRRIWELIEENPDDAELLELLAKLIELIRRGNHEEAEELARRVT
B4: il2ra_site1_3nfp_normal_mot_HHH_b1_08274_000000153_0001_43_57_H_._HHH_b2_04752_0001_0000800040_0000001_0 (protein)
chain: SSSSSDVEEEVERLLEEAERLAEEGNQEEALELFEQVFRLIAKLGNPELDRLLFEWVARQSSSSS
B5: il2ra_site1_3nfp_normal_mot_HHH_b1_05162_af2_000000139_0001_1_18_H_._HHH_b1_02574_af2_0001_0000500035_0000001_0 (protein)
chain: SSSSNEERRRAQELLKEIKRAIKHGDEERAKELLEEVEELAEKANDKAAKWAVEELEKSLKSSSS
B6: il2ra_site2_2erj_sap_19_mot_HHH_b2_03659_000000135_0001_38_56_H_._HHH_b2_01839_0001_0000100005_0000001_0_0001 (protein)
chain: SSSSSDLRQLYELLNELMKAIENGDEELFEELVREIRELAEELDSENAREMLEVLERSFKSSSSS
B7: il2ra_site2_2erj_sap_18_mot_9b841c8fe2e6d1e24304b827c5c38554_0001_1_af2_000000119_0001_36_49_H_._HHH_b1_03327_0001_0000200020_0000001_0_0001 (protein)
chain: SSSSSSEEEEEIRELIEEAKQIEDPEEALEVLRKAAQLAFQINDFELFSEIAELLRELGSSSSSS
B8: il2ra_site2_3nfp_sap_20_mot_HHH_b1_03259_000000044_0001_22_38_H_._HHH_b2_07525_0001_0000400029_0000001_0_0001_af2pred_0001_af2pred (protein)
chain: SEEEELEREAKENPEEFIRRAALEALEAGDDELFSEVLLLREAVERGEIPPEEAARLVVEVLRES
B9: il2ra_site2_2erj_sap_20_mot_HHH_b1_08290_000000297_0001_19_37_H_._HEEHE_0898_0001_0000100005_0000001_0_0001 (protein)
chain: SSSSDAWEFAAEVSIEALELYKEGNPEEAERLVEEAEEIAKELNDPHALEYLEHLLKHIRHSSSS
B10: il2ra_site1_2b5i_normal_mot_HHH_b1_08745_af2_000000166_0001_39_57_H_._HHH_b1_05884_0001_0000600032_0000001_0_af2pred_dldesign_0_af2pred (protein)
chain: SSSSSPEIQKLREMFEEADRLFKAGKYEEAKELLEKALKLAKELGANLELRIIQSALEQLESSSS
B11: il2ra_site1_3nfp_sap_4_mot_ems_3hC_617_000000125_0001_25_41_H_._HHH_b1_07175_0001_0000300021_0000001_0_0001_af2pred_0001_1_af2pred_swapped (protein)
chain: SSSSSTEELQEASEKVLKLLREADRDPERAEELLKRARELIEEVNSRALKFILERIEELLSSSSS
B12: il2ra_site2_2erj_normal_mot_HHH_b2_01649_000000268_0001_20_36_H_._HHH_b2_02810_0001_0000700046_0000001_0 (protein)
chain: SSSSDEEVREEVERLLEEAKQIEDEEEAEKLLRRAAELAFRNRDEELWSLIAEVLEELIRSSSSS
B13: il2ra_site2_2erj_normal_mot_c2bf78bdce995293a161f7082e24b401_0001_af2_000000082_0001_17_32_H_._HHH_b2_06191_0001_0000300020_0000001_0 (protein)
chain: SSSSSLERLYELANRLLHLVHNNDEEEFEELLREAQELAEKFGSQTVEEILEFLEELIKGSSSSS
B14: il2ra_site1_3nfp_sap_23_mot_ems_3hC_921_af2_000000143_0001_22_40_H_._HHH_b1_07723_0001_0000200012_0000001_0_0001 (protein)
chain: SEDEEEAEKLLKRIVPPFAVRMLKILAEAVKRGNPNAKRRLEYDERSARHLGDEDVVEAIELLRK
B15: il2ra_site2_2erj_normal_mot_6c2800a769814540b5b47941e710ff28_0001_000000197_0001_35_49_H_._HHH_b2_01083_0001_0000200011_0000001_0 (protein)
chain: SSSSLEEDFRVAVEAAARASELHRRGNPEEAQEVLEEAIEFVEKNGNENAKELLESLLRILSSSS
B16: il2ra_site1_3nfp_sap_18_mot_ems_3hC_836_0002_000000087_0001_24_40_H_._HHH_b2_00679_0001_0000200013_0000001_0_0001_af2pred_0001_af2pred (protein)
chain: SSSSSDEKEELEELIRRAHKLAKNGNPEEARELLEQAEELAEKLGSRAAVRFVRSILRILSSSSS
B17: il2ra_site1_3nfp_sap_7_mot_HHH_b2_02342_000000249_0001_42_55_H_._HHH_b1_05136_0001_0001500020_0000001_0_0001_af2pred_0001_af2pred_1 (protein)
chain: SSSSDEEKALRKFVEDAVKAAGLSEEDKERLEEVVEELVRQGVSSQEAARIIAELAAKLHHSSSS
B18: il2ra_site2_2erj_sap_7_mot_87b7e031a888ead1881e674a44c3f2a3_0001_1_af2_000000022_0001_37_50_H_._HHH_b1_04171_0001_0000200003_0000001_0_0001 (protein)
chain: SSSSDEEELKKLLEEAEELLENGNPEEAWRVLRRAASLAWQLNDFELWSKIAELLRAIAKSSSSS
B19: il2ra_site1_3nfp_sap_18_mot_HHH_b1_01736_000000293_0001_24_39_H_._HHH_b2_01871_0001_0000300019_0000001_0_0001_af2pred_0001_af2pred_1 (protein)
chain: SDRAIELYVERAVKLNSPKALKKFLEDLEKHHGDPEEAERFLEEALEAVLGDPEEVERLLKLAKE
B20: il2ra_site1_1z92_normal_mot_HHH_b1_08597_af2_000000202_0001_42_56_H_._6e12af4a48b4634929ba45889b8be782_0001_0001_0000300015_0000001_0 (protein)
chain: NVEWAIENLERLARLQGNPEVEEVLRRVLELLKKNEEEAERFLEKLVEELGDKLLRLLLRMLKDA
B21: il2ra_site1_1z92_normal_mot_01209686ea234b34325f918445e6eade_0001_af2_000000154_0001_18_33_H_._HHH_b2_03062_af2_0001_0000100027_0000001_0 (protein)
chain: SSSSDEELEEIAEEIVEELVRKLNLSEHDEEALRKDAELAVRLGFSPKSLEYALEHAAKLASSSS
B22: il2ra_site2_3nfp_normal_mot_HHH_b2_05281_000000198_0001_39_56_H_._HHH_b2_04588_0001_0000400028_0000001_0 (protein)
chain: SSSSSDVEEEVERLLEEARKSSDEEERERLIAEAVELAYEARDSELFYLIAEVAFELRQSSSSSS
B23: il2ra_site2_3nfp_sap_20_mot_HHH_b2_00486_000000264_0001_1_16_H_._HHH_b1_03674_af2_0001_0000300006_0000001_0_0001 (protein)
chain: SSSSDREEVEELLEEARELLEEGNPQEAAQVVMEASELAAKLNDPELARAVLELYELLKRSSSSS
B24: il2ra_site1_3nfp_sap_10_mot_HHH_b1_07644_af2_000000110_0001_40_57_H_._HHH_b2_03060_af2_0001_0000700014_0000001_0_0001 (protein)
chain: SSSSSERMKEFEKIAREVMRLLREGDEEEAKRLIERLEELAEEWNDPAAEWLVEQLERRASSSSS
B25: il2ra_site1_3nfp_normal_mot_HHH_b1_04735_000000141_0001_19_38_H_._80d2c3d53f8320a55307537ed575e81c_0001_0001_0000400031_0000001_0 (protein)
chain: SEYDELFRRAVRLLPPEAIELLFRVLKRAIKNGDEELARELVEEVLELAKHDPREAEEFLQEILK
B26: il2ra_site2_3nfp_sap_18_mot_HHH_b1_00239_000000199_0001_23_39_H_._ad81070c4fcd12ba5f163adb410dbfa5_0001_0001_0000600043_0000001_0_0001 (protein)
chain: SDAYRLAEEALRLAEEVKEDPEKREELAEEVKRLAEEVEKNAKTEAERLAARLIRAHALVNEESS
B27: il2ra_site2_3nfp_normal_mot_ems_p1-15H-GBL-16H-GBL-14H_0089_0001_0001_0001_af2_000000072_0001_19_33_H_._HHH_b1_02393_0001_0000100012_0000001_0_af2pred_0001_1_af … (protein)
chain: SSSSSDEEEREEVEELLEEAKHIEDEHELFAVLADALTIALELNDPELEELVKRVARKLLSSSSS
B28: il2ra_site2_3nfp_sap_24_mot_HHH_b2_07366_af2_000000244_0001_39_56_H_._HHH_b1_01524_0001_0000600025_0000001_0_0001 (protein)
chain: SSSSSKSEEYLRAALEIARLALEDGDPESAEEIARTALLAARDQGDEELEEEIEELLRKIGSSSS
B29: il2ra_site1_2b5i_normal_mot_HHH_b2_04463_af2_000000056_0001_43_55_H_._HHH_b1_05929_0001_0000200010_0000001_0 (protein)
chain: SSSSDEEDERIDELFIEASRLFRKGNPEEAERVLEEAIKLAEELGDEHQLKQLEFMKEQVGSSSS
B30: il2ra_site2_3nfp_sap_19_mot_HHH_b1_04756_000000059_0001_41_55_H_._51cc31007119fa75359d0ea3f4aa2c22_0001_1_0001_0000100006_0000001_0_0001 (protein)
chain: SSSSDHAEEYLRALELLIKLAFEEGDPEAAERHLEEAEKMAEDNGDEELLEKLEELREKISSSSS
B31: il2ra_site2_2erj_normal_mot_HHH_b1_08185_000000063_0001_41_55_H_._HHH_b2_05996_0001_0000200015_0000001_0 (protein)
chain: SSSSSDEIEEEVLELIAEAAHIPDPKEAVEVLREALELAEEYGNELLRRYLELSIKDIEGSSSSS
B32: il2ra_site1_2b5i_normal_mot_0e5a94e4a5addaac739760efb25f0f5d_0001_000000246_0001_18_32_H_._HHH_b1_04316_0001_0000300016_0000001_0_af2pred_dldesign_0_af2pred (protein)
chain: SSSSTEEERARKKRMVDLIYRIRLKGDPEAVAEATRLATEALESGDPALWDRVEALAARLSSSSS
B33: il2ra_site2_3nfp_normal_mot_HHH_b1_02297_000000279_0001_41_58_H_._HHH_b2_05121_af2_0001_0000200008_0000001_0 (protein)
chain: SSSSDVEEEVKRLLEEAEEATERGDEEKVRELLSRAAHLAYEANDFELFAAVNELLEKFVQSSSS
B34: il2ra_site2_3nfp_normal_mot_HHH_b1_06589_000000230_0001_37_50_H_._HHH_b1_07685_af2_0001_0000200008_0000001_0 (protein)
chain: SSSSDEEVKKLLEEAEELLENGNPEEAKQVASRAALIAFEEGNQELYMAVAELIFKIARNSSSSS
B35: il2ra_site2_2erj_normal_mot_HHH_b1_04373_af2_000000118_0001_18_33_H_._HHH_b2_00961_af2_0001_0000900028_0000001_1 (protein)
chain: SSSSSDEEEVERRVRELLEEAEKVDLEEAYKLAVEALHLAAENRDPELLRLILEWVEKHSSSSSS
B36: il2ra_site2_2erj_sap_20_mot_91f4e0b9ef636147e55e10354d5068a9_0001_000000168_0001_33_48_H_._HHH_b1_03044_af2_0001_0000700014_0000001_0_0001_af2pred_0001_1_af2pre … (protein)
chain: SSSSDEEEERVEELLEEAKRIEDPEEAFAVLSEALEIAEENNNPELFKEVKEVLERLRRGSSSSS
B37: il2ra_site1_1z92_sap_9_mot_HHH_b2_04375_000000267_0001_42_56_H_._HHH_b2_04201_af2_0001_0000600051_0000001_0_0001 (protein)
chain: TRDIREEIEEAIKKNDDELLKEILEQAERDAGDPRLAKQFLKTMIARLLGDPEEAEKIVERIERR

biological target: il2ra, P01589; assay: yeast display titration

Apparent Kd, inactive:
B1 no binding seen, B2 no binding seen, B3 no binding seen, B4 no binding seen, B5 no binding seen, B6 no binding seen, B7 no binding seen, B8 no binding seen, B9 no binding seen, B10 no binding seen, B11 no binding seen, B12 no binding seen, B13 no binding seen, B14 no binding seen, B15 no binding seen, B16 no binding seen, B17 no binding seen, B18 no binding seen, B19 no binding seen, B20 no binding seen, B21 no binding seen, B22 no binding seen, B23 no binding seen, B24 no binding seen, B25 no binding seen, B26 no binding seen, B27 no binding seen, B28 no binding seen, B29 no binding seen, B30 no binding seen, B31 no binding seen, B32 no binding seen, B33 no binding seen, B34 no binding seen, B35 no binding seen, B36 no binding seen, B37 no binding seen
